# Measurements taken from paper doi:10.1101/2020.04.03.022855 (bioRxiv, 2020).
# These are yes or no findings as the source states them, for the method shown. Some entries that bind do so weakly or less than the wild type.
# T1: OmpC·Skp3 complex (OmpC G8C-D335C, dual-labelled, with three Skp) (Escherichia coli) (UniProt P06996+P0AEU7)
# T1 sequence (chain, AF555 and AF647 maleimide dyes on the cysteines at 8 and 335) 1: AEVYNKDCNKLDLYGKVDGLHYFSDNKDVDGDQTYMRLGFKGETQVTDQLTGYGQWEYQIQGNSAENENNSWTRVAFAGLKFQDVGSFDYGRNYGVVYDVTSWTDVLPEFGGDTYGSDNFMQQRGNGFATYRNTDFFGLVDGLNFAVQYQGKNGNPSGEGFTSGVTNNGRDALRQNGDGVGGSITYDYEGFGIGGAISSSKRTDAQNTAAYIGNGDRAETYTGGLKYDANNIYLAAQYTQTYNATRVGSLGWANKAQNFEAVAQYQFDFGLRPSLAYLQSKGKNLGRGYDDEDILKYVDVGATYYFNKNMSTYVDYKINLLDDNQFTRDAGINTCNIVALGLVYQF
# T1 sequence (chain, AF555 and AF647 maleimide dyes on the cysteines at 8 and 335) 2: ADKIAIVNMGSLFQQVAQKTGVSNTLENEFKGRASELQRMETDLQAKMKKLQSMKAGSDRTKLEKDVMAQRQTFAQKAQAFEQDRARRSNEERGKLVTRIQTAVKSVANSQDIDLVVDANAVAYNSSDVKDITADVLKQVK
# B1: Seventeen kilodalton protein (Skp), unlabelled (natural protein, Escherichia coli, UniProt P0AEU7 21-161, looked up)
# chain: T1 sequence (chain, AF555 and AF647 maleimide dyes on the cysteines at 8 and 335) 2
# Molecular target: T1, OmpC·Skp3 complex (OmpC G8C-D335C, dual-labelled, with three Skp) (Escherichia coli)
# Test: single-molecule FRET
binder,measurement,value
B1,binding,binds
